These are yes or no findings as the source states them, for the method shown. In cells and extracts the contact can be indirect. Some results given as binding are weak or reduced against the parent protein; the word gives no strength.
Molecular target: histone deacetylase (HDAC) 2 (human (endogenous in WI-38)) (UniProt Q92769)
Assay: co-IP; WI-38 cell lysates, cells with or without ET-1 stimulation for 20 min; supernatants incubated with protein A/G beads and antibodies specific for HDAC2, Sin3A or MeCP2 at 4 °C overnight; partners detected by Western blotting

Protein sequences, listed by entry. Tags and fused reporters are not part of them.
UniProt Q92769: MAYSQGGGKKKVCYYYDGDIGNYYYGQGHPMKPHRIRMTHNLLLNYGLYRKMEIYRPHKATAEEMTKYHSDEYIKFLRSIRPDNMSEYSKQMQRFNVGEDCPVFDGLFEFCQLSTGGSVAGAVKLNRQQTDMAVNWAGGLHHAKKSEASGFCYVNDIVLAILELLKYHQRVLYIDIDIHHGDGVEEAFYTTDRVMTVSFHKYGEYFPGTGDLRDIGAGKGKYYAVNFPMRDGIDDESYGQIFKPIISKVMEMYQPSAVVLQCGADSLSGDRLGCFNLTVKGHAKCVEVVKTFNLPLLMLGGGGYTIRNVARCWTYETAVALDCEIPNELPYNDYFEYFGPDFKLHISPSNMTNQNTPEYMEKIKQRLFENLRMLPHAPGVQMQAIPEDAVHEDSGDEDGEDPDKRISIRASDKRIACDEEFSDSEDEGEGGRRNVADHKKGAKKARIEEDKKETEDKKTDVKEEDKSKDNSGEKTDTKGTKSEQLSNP
UniProt P51608: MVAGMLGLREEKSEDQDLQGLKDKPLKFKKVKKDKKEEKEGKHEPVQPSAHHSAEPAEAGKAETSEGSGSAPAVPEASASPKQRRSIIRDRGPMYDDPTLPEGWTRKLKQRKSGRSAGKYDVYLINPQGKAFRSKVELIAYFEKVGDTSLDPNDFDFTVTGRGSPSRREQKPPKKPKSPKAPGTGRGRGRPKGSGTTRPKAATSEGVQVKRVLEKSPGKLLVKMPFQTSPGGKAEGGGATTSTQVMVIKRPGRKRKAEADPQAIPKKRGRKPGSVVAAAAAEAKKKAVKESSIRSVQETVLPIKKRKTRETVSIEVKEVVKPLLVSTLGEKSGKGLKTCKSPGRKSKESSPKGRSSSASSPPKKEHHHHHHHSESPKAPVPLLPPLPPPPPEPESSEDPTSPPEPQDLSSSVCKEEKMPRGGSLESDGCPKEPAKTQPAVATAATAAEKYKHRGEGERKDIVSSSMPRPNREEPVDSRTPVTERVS

## methyl-CpG-binding protein (MeCP) 2 (from UniProt P51608 1-486)
  binding: binds

Reference: article PMC10265878
